Data as given in paper PMC1852583.
These are yes or no findings as the source states them, for the method shown. Binding seen in cells or lysates may run through a third protein. Some results given as binding are weak or reduced against the parent protein; the word gives no strength.

The chains behind the UniProt entries cited, without tags or fusion partners.
UniProt Q9JHL4: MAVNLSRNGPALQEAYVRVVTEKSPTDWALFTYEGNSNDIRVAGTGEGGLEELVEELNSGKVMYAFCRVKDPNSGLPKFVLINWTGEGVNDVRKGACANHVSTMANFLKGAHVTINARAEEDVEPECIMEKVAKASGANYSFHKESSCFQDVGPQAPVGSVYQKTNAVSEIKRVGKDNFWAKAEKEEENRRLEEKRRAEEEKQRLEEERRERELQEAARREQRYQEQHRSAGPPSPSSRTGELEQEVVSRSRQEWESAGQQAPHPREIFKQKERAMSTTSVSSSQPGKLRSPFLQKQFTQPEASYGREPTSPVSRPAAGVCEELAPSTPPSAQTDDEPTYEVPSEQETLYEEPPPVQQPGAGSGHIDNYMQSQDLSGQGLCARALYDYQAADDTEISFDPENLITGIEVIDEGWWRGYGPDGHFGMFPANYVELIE
UniProt O08816: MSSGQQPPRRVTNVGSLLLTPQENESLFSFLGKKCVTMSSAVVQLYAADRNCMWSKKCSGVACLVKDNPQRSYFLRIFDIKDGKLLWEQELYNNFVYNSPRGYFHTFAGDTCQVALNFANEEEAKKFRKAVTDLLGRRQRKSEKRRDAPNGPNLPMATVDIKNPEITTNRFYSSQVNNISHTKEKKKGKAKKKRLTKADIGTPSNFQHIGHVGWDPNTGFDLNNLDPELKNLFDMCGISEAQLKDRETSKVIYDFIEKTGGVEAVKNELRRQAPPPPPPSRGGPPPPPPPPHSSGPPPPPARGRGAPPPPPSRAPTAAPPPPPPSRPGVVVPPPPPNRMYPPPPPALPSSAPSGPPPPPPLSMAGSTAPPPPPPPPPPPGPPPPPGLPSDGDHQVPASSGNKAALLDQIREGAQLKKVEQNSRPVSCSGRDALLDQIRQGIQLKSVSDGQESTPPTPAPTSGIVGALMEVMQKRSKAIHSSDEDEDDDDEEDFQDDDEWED

Target: endogenous Abp1 from rat brain (rat (endogenous in rat brain)) (UniProt Q9JHL4)
Test: co-IP; affinity-purified rabbit anti-Abp1 antibodies or unrelated rabbit IgG, rat brain extracts (1 mg each), 100 mM NaCl; anti-N-WASP immunoblot

- binding: binds
Substance: endogenous N-WASP from rat brain (from UniProt O08816 1-501)
